Record: PubChem BioAssay AID1671195 (Yale University, 2021)
In all, the deposit lists about 22,000 reagents; this is a random part of them. Over the whole deposit, about 1,510 (6.9%) got an active call. 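Active includes knockdowns raising or lowering LDL uptake; positive z-scores mean more uptake, negative mean less.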 Reagent sequences are not shown.

- Purpose: 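Regulators of LDL receptor activity judged by labelled LDL uptake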 (primary screen)
- System: human Huh7 hepatoma cells
- Reagent: siRNA pool against human genes, 18 nM
- Time to read-out: about 2 to 2.5 days of knockdown, then 8 h LDL uptake
- Treatment: DiI-labelled LDL at 30 µg/ml for 8 h, in lipoprotein-deficient serum medium
- Measurement: 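Fluorescent LDL signal imaged in cells, scaled to the plate median, robust z-score for each replicate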
- Scale: robust z-score: higher = more LDL uptake after knockdown
- Rule for the call: 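a gene counts as active if at least two replicate z-scores exceed ±2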

gene symbol	robust z-score, replicate 1	robust z-score, replicate 2	robust z-score, replicate 3	activity call
SLC50A1	-0.297	0.397	-0.425	inactive
HEPHL1 (hephaestin like 1)	0.0389	-0.013	0.113	inactive
MTMR1 (myotubularin related protein 1)	0.303	0.327	0.477	inactive
TMEM150C (transmembrane protein 150C)	0.752	0.635	1.29	inactive
BEND5 (BEN domain containing 5)	0.814	1.27	0.745	inactive
KRI1 (KRI1 homolog)	-1.32	-1.34	-1.32	inactive
POLR3A (RNA polymerase III subunit A)	-0.499	0.297	0.654	inactive
FIG4 (FIG4 phosphoinositide 5-phosphatase)	3.97	3.5	1.54	active
MT3 (metallothionein 3)	-0.678	-1.84	-0.968	inactive
SHCBP1L (SHC binding and spindle associated 1 like)	-1.11	-1	-1.13	inactive
EPHA4 (EPH receptor A4)	0.571	1.25	0.959	inactive
ITGA2 (integrin subunit alpha 2)	2.02	-1.53	0.632	inactive
NCBP2 (nuclear cap binding protein subunit 2)	-1.26	-1.31	-0.787	inactive
VN2R1P (vomeronasal 2 receptor 1, pseudogene)	0.284	0.643	-0.00787	inactive
R3HCC1L (R3H domain and coiled-coil containing 1 like)	0.489	0.221	-0.82	inactive
KCNQ1DN (KCNQ1 downstream neighbor)	0.187	1.26	-0.0225	inactive
TUT4 (terminal uridylyl transferase 4)	-0.473	0.613	-1.02	inactive
NME7 (NME/NM23 family member 7)	1.2	0.00991	0.453	inactive
SMG7-AS1 (SMG7 antisense RNA 1)	-0.29	-0.141	-0.636	inactive
ZMYND10 (zinc finger MYND-type containing 10)	2.3	1.24	1.12	inactive
OR6C2 (olfactory receptor family 6 subfamily C member 2)	0.411	0.482	0.588	inactive
ZNF512 (zinc finger protein 512)	-1.4	-1.46	-0.678	inactive
LOC441742 (retired record)	-0.344	-0.462	-0.67	inactive
RMND5A (required for meiotic nuclear division 5 homolog A)	1.15	1.29	0.85	inactive
EXOSC9 (exosome component 9)	-1.25	-1.06	-1.68	inactive
SLC17A1	-1.62	-1.15	-1.36	inactive
IPO4 (importin 4)	-1.04	-1.31	-1.4	inactive
SLU7 (spliceosome associated SLU7)	-0.533	-0.768	-1.14	inactive
NRXN2 (neurexin 2)	-0.456	-0.486	-0.935	inactive
LPCAT2 (lysophosphatidylcholine acyltransferase 2)	-0.109	0.499	0.428	inactive
HASPIN (histone H3 associated protein kinase)	1.37	0.276	0.398	inactive
LOC441615 (retired record)	0.252	0.664	0.388	inactive
GLIPR2 (GLI pathogenesis related 2)	0.473	0.664	-1.18	inactive
ODAD3 (outer dynein arm docking complex subunit 3)	-0.159	0.409	0.568	inactive
FETUB (fetuin B)	-0.379	0.566	0.173	inactive
TBC1D26 (TBC1 domain family member 26)	0.553	0.039	0.12	inactive
ADGRG1 (adhesion G protein-coupled receptor G1)	1.61	1.49	1.6	inactive
BLMH (bleomycin hydrolase)	-0.88	0.438	-0.521	inactive
SUMO3 (small ubiquitin like modifier 3)	1.49	2.2	1.06	inactive
NUCLEOLIN (nucleolin multifunctional protein)	-0.0922	-0.127	0.163	inactive
PAQR8 (progestin and adipoQ receptor family member 8)	0.0954	0.238	0.252	inactive
PTK6 (protein tyrosine kinase 6)	0.244	0.0597	0.311	inactive
SLC25A53	-0.607	-1.05	-1.01	inactive
HPCAL4 (hippocalcin like 4)	0.259	0.316	0.601	inactive
EIF4E1B (eukaryotic translation initiation factor 4E family member 1B)	-0.662	-0.61	-0.72	inactive
MEP1AP3 (meprin A subunit alpha pseudogene 3)	4.28	3.6	3.89	active
LINC01996 (long independently transcribed non-coding RNA 1996)	-0.604	-0.865	-1.08	inactive
GPRC5C (G protein-coupled receptor class C group 5 member C)	-0.0852	-1.05	-0.419	inactive
PEA15 (proliferation and apoptosis adaptor protein 15)	1.72	1.14	0.648	inactive
CCDC106 (coiled-coil domain containing 106)	-1.69	-0.617	-2.56	inactive
KCNE5	-0.299	0.199	1.94	inactive
ZDHHC7 (zDHHC palmitoyltransferase 7)	1.19	-0.0757	1.98	inactive
LYSET (lysosomal enzyme trafficking factor)	0.0224	-1.89	-0.409	inactive
DAOA-AS1 (DAOA antisense RNA 1)	-0.83	-0.532	-0.815	inactive
EHHADH (enoyl-CoA hydratase and 3-hydroxyacyl CoA dehydrogenase)	-0.803	-1.01	-0.962	inactive
PRDX4 (peroxiredoxin 4)	-0.0567	-0.0467	0.207	inactive
ZNF165 (zinc finger protein 165)	0.208	-0.0296	0.0499	inactive
MELTF (melanotransferrin)	-0.313	-1.11	-0.605	inactive
RBAK (RB associated KRAB zinc finger)	-0.59	-1.07	1.45	inactive
FDPSP5 (farnesyl diphosphate synthase pseudogene 5)	-0.861	-0.878	-1.03	inactive
LOC441347 (retired record)	-0.304	-0.274	-0.0477	inactive
HGS (hepatocyte growth factor-regulated tyrosine kinase substrate)	0.107	-0.2	-0.13	inactive
ARHGDIA (Rho GDP dissociation inhibitor alpha)	-0.449	-0.786	-0.987	inactive
HESX1 (HESX homeobox 1)	-1.49	-1.6	-1.94	inactive
HYOU1 (hypoxia up-regulated 1)	-0.564	-0.557	-0.804	inactive
DKFZp686M1136 (retired record)	-1.76	-1.19	-1.07	inactive
AQR (aquarius intron-binding spliceosomal factor)	-1.29	0.279	-0.0232	inactive
LOC388898 (retired record)	0.227	0.474	-0.0473	inactive

Sorted by “robust z-score, replicate 3” (lowest first): 8 of the entries above.
gene symbol	robust z-score, replicate 1	robust z-score, replicate 2	robust z-score, replicate 3	activity call
KRI1 (KRI1 homolog)	-1.32	-1.34	-1.32	inactive
SHCBP1L (SHC binding and spindle associated 1 like)	-1.11	-1	-1.13	inactive
MT3 (metallothionein 3)	-0.678	-1.84	-0.968	inactive
NCBP2 (nuclear cap binding protein subunit 2)	-1.26	-1.31	-0.787	inactive
ITGA2 (integrin subunit alpha 2)	2.02	-1.53	0.632	inactive
POLR3A (RNA polymerase III subunit A)	-0.499	0.297	0.654	inactive
EPHA4 (EPH receptor A4)	0.571	1.25	0.959	inactive
FIG4 (FIG4 phosphoinositide 5-phosphatase)	3.97	3.5	1.54	active
